# PubChem BioAssay AID602196, INSERM – 2012
# Test: 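Modifiers of cisplatin sensitivity in A549 cells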
# Cells: human A549 lung cancer cells
# Reagents: siRNA pair against human genes
# Time to read-out: 48 h transfection before cisplatin; time from cisplatin to read-out not stated
# Conditions: cisplatin at a dose killing half of control-siRNA cells; exact dose and duration not given
# Read-out: 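Cisplatin cell death as a shift from the 50% death seen with control siRNA; siRNAs toxic or growth-blocking alone scored 0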
# Scale: two-siRNA summed score (-2 to +2): higher = both siRNAs protect from cisplatin killing; -2 means both sensitise
# Call rule: 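Each siRNA scores 0 if harmful alone by LDH or WST-1, otherwise +1 if it reduces and -1 if it increases cisplatin killing; a gene is active when both siRNAs agree (sum +2 or -2)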
# Calls: active = both siRNAs shift cisplatin killing the same way; inactive = no consistent shift, or siRNA harmful alone
# The whole screen tested about 23,000 reagents; this is a part drawn at random. Over the whole deposit, 455 (2%) were called active. 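Active includes both protection and sensitisation; some change values fall well beyond the stated -50 to +50 range.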 Unmarked entries are inactive. Not all columns of the deposit are shown. Not given: the amount of reagent.
target gene,two-siRNA summed score (-2 to +2)
SLC8A1,1
LGALS9,0
TAL2,0
DUSP12,0
LOC441722,0
C2CD2,-1
DRC8,0
LOC441448,0
FAHD2B,-1
FMNL3,0
MYBPC1,0
LOC389151,0
MUS81,0
CA15P2,0
LOC442145,1
MARCHF2,0
HOXA6,0
DNM1DN11-7,2 (active)
GPRASP2,-1
FLJ10707,-1
COMTD1,0
BCAT2,-1
KRT75,0
SPATA46,0

Laid out differently: 5 of the entries above
| target gene | two-siRNA summed score (-2 to +2) |
| --- | --- |
| MARCHF2 | 0 |
| HOXA6 | 0 |
| DNM1DN11-7 | 2 (active) |
| GPRASP2 | -1 |
| FLJ10707 | -1 |

Further records follow:
target gene,two-siRNA summed score (-2 to +2)
COX6C,0
LOC389059,0
CCNQ,0
SH2B2,0
CNNM4,0
WDFY1,-1
LOC387992,0
SPANXN1,1
LOC389236,0
NMBR,1
TSPAN17,0
FXYD5,0
PMCH,0
TAS2R13,0
PTPN11,0
